Data reported in article PMC6045618, “Novel natural killer cell-mediated cancer immunotherapeutic activity of anisomycin against hepatocellular carcinoma cells” (Scientific Reports, 2018).

Tested on: HepG2 HCC cells
Test: Affymetrix whole-genome expression microarray, HepG2
Type: cell-based
Details: HepG2, 0.2 µM, 2 days

SMILES: COc1ccc(C[C@H]2NC[C@H](O)[C@H]2OC(C)=O)cc1 [anisomycin]
- Number of probes downregulated by ≥2-fold versus vehicle: 1,195
- Number of probes upregulated by ≥2-fold versus vehicle: 1,173
